Results as given in patent US20020192214A1.
Results are given in words; binding and its absence hold for the method and conditions named. Some binding calls cover weakened binding; strength is not graded here.

Chains of the proteins cited; added tags and fusions are not shown. Lines headed by an entry give the natural chain unless they say otherwise; changes in a name come on top. Residues count along the entry.
UniProt P51677: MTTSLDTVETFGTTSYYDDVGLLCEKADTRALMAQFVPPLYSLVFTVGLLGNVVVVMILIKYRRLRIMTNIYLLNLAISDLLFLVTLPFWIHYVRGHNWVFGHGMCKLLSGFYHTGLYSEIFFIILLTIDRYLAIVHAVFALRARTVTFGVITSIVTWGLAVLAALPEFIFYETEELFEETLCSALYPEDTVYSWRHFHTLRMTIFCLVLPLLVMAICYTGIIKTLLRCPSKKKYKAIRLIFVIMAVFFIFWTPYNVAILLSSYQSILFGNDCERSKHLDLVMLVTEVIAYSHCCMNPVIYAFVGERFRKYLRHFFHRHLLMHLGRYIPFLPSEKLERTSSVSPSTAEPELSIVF
UniProt P80098, residues 24-99: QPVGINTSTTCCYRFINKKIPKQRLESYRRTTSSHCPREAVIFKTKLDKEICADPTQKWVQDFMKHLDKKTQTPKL
UniProt P13501, residues 24-91: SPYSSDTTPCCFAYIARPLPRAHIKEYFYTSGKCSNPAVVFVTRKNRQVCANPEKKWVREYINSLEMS

Legend:
[1] = biological target: endogenous eosinophil eotaxin receptor (CC CKR3) on primary human eosinophils (human) (UniProt P51677); experiment: competition against 125I-eotaxin, primary eosinophils
[2] = biological target: human eosinophil eotaxin receptor CC CKR3, stably expressed in AML14.3D10 cells (human) (UniProt P51677); experiment: competition binding, AML14.3D10 cells expressing CC CKR3
[3] = biological target: human eosinophil eotaxin receptor CC CKR3, stably expressed in AML14.3D10 cells (human) (UniProt P51677); experiment: competition against 125I-MCP-3, AML14.3D10 cells expressing CC CKR3
[4] = biological target: human eosinophil eotaxin receptor CC CKR3, stably expressed in AML14.3D10 cells (human) (UniProt P51677); experiment: competition against 125I-human eotaxin, AML14.3D10 cells expressing CC CKR3

binding [1] | binding [2] | binding [3] | binding [4] | Substance
binds | binds | binds | binds | MCP-3 (from UniProt P80098 24-99) (ligand)
binds | binds | binds | binds | RANTES (from UniProt P13501 24-91) (ligand)
